# Measurements from the supplement of paper PMC8728848.
# Some of the results follow.
# B1: Erv41-EDTA (Saccharomyces cerevisiae), Q04651 (protein)
# chain: MKFLVNVALVFMVVYISYIYAAAPEHHHHHHDYDIPTTENLYFQGAMGYIDQQYVVDSQVRDTVQINMDIYVNTKCDWLQINVRDQTMDRKLVLEELQLEEMPFFIPYDTKVNDINEIITPELDEILGEAIPAEFREKLDTRSFFDESDPNKAHLPEFNGCHVFGSIPVNRVSGELQITAKSLGYVASRKAPLEELKFNHVINEFSFGDFYPYIDNPLDNTAQFNQDEPLTTYVYYTSVVPTLFKKLGAEVDTNQYSVNDYRYLYKDVAAKGDKMPGIFFKYNFEPLSIVVSDVRL
# Assays:
# Test in all cases: glycan array binding signal (z-score within array); higher = stronger binding
# Details in all cases: glycan notation: IUPAC condensed, linker removed
# [1] = biological target: Neu5Ac(a2-6)Gal(b1-4)GlcNAc(b1-3)Gal(b1-4)GlcNAc(b1-3)Gal(b1-4)GlcNAc(b1-2)Man(a1-3)[Neu5Ac(a2-6)Gal(b1-4)GlcNAc(b1-3)Gal(b1-4)GlcNAc(b1-3)Gal(b1-4)GlcNAc(b1-2)Man(a1-6)]GalNAc
# Method in brief: (§1)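 Negative Z-scores can be read as non-binding. The Z-score is calculated within each array and then averaged across arrays of one protein sequence at different concentrations or buffers and across linkers. Arrays, 3228 in all, were curated from the Consortium for Functional Glycomics database and kept only where the protein sequence was available.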
# [2] = biological target: Neu5Ac(a2-6)Gal(b1-4)GlcNAc(b1-3)Gal(b1-4)GlcNAc(b1-3)GalNAc
# Method in brief: as §1
# [3] = biological target: Neu5Ac(a2-6)Gal(b1-4)GlcNAc(b1-3)Gal(b1-4)GlcNAc(b1-3)[Neu5Ac(a2-6)Gal(b1-4)GlcNAc(b1-3)Gal(b1-4)GlcNAc(b1-6)]GalNAc
# Method in brief: as §1
# [4] = biological target: Neu5Ac(a2-6)Gal(b1-4)GlcNAc(b1-3)Gal(b1-4)GlcNAc(b1-6)[Gal(b1-3)]GalNAc
# Method in brief: as §1
# [5] = biological target: Neu5Ac(a2-6)Gal(b1-4)GlcNAc(b1-3)Gal(b1-4)[Fuc(a1-3)]GlcNAc(b1-3)Gal(b1-4)[Fuc(a1-3)]GlcNAc
# Method in brief: as §1
# [6] = biological target: Neu5Ac(a2-6)Gal(b1-4)GlcNAc(b1-3)GalNAc
# Method in brief: as §1
# [7] = biological target: Neu5Ac(a2-6)Gal(b1-4)GlcNAc(b1-3)[Neu5Ac(a2-6)Gal(b1-4)GlcNAc(b1-6)]GalNAc
# Method in brief: as §1
# [8] = biological target: Neu5Ac(a2-6)Gal(b1-4)GlcNAc(b1-6)GalNAc
# Method in brief: as §1
# [9] = biological target: Neu5Ac(a2-6)Gal(b1-4)GlcNAc(b1-6)[Gal(b1-3)GlcNAc(b1-3)]Gal(b1-4)Glc
# Method in brief: as §1
# [10] = biological target: Neu5Ac(a2-6)Gal(b1-4)GlcNAc(b1-6)[Gal(b1-3)]GalNAc
# Method in brief: as §1
# [11] = biological target: Neu5Ac(a2-6)Gal(b1-4)GlcNAc6S
# Method in brief: as §1
# [12] = biological target: Neu5Ac(a2-6)GalNAc
# Method in brief: as §1
# [13] = biological target: Neu5Ac(a2-6)GalNAc(b1-4)GlcNAc
# Method in brief: as §1
# [14] = biological target: Neu5Ac(a2-6)GalNAc(b1-4)GlcNAc6S
# Method in brief: as §1
# [15] = biological target: Neu5Ac(a2-6)GlcNAc(b1-4)GlcNAc
# Method in brief: as §1
# [16] = biological target: Neu5Ac(a2-6)GlcNAc(b1-4)GlcNAc(b1-4)GlcNAc
# Method in brief: as §1
# [17] = biological target: Neu5Ac(a2-8)Neu5Ac
# Method in brief: as §1
# [18] = biological target: Neu5Ac(a2-8)Neu5Ac(a2-3)Gal(b1-3)GalNAc(b1-4)[Neu5Ac(a2-3)]Gal(b1-4)Glc
# Method in brief: as §1
# [19] = biological target: Neu5Ac(a2-8)Neu5Ac(a2-3)Gal(b1-3)GalNAc(b1-4)[Neu5Ac(a2-8)Neu5Ac(a2-3)]Gal(b1-4)Glc
# Method in brief: as §1
# [20] = biological target: Neu5Ac(a2-8)Neu5Ac(a2-3)Gal(b1-4)Glc
# Method in brief: as §1
# [21] = biological target: Neu5Ac(a2-8)Neu5Ac(a2-3)Gal(b1-4)GlcNAc
# Method in brief: as §1
# [22] = biological target: Neu5Ac(a2-8)Neu5Ac(a2-3)[Gal(b1-3)GalNAc(b1-4)]Gal(b1-4)Glc
# Method in brief: as §1
# [23] = biological target: Neu5Ac(a2-8)Neu5Ac(a2-3)[GalNAc(b1-4)]Gal(b1-4)Glc
# Method in brief: as §1
# [24] = biological target: Neu5Ac(a2-8)Neu5Ac(a2-8)Neu5Ac
# Method in brief: as §1
# [25] = biological target: Neu5Ac(a2-8)Neu5Ac(a2-8)Neu5Ac(a2-3)Gal(b1-4)Glc
# Method in brief: as §1
# [26] = biological target: Neu5Ac(a2-8)Neu5Ac(a2-8)Neu5Ac(a2-3)[Gal(b1-3)GalNAc(b1-4)]Gal(b1-4)Glc
# Method in brief: as §1
# [27] = biological target: Neu5Ac(a2-8)Neu5Ac(a2-8)Neu5Ac(a2-3)[GalNAc(b1-4)]Gal(b1-4)Glc
# Method in brief: as §1
# [28] = biological target: Neu5Ac(a2-8)Neu5Ac(a2-8)Neu5Ac(a2-8)Neu5Ac(a2-3)[GalNAc(b1-4)]Gal(b1-4)Glc
# Method in brief: as §1
# [29] = biological target: Neu5Ac(a2-8)Neu5Gc(a2-3)Gal(b1-4)GlcNAc
# Method in brief: as §1
# [30] = biological target: Neu5Ac(b2-6)Gal(b1-4)GlcNAc
# Method in brief: as §1
# [31] = biological target: Neu5Ac(b2-6)GalNAc
# Method in brief: as §1
# [32] = biological target: Neu5Ac9Ac(a2-3)Gal(b1-3)GlcNAc
# Method in brief: as §1
# [33] = biological target: Neu5Ac9Ac(a2-3)Gal(b1-4)GlcNAc
# Method in brief: as §1
# [34] = biological target: Neu5Ac9Ac(a2-6)Gal(b1-4)GlcNAc
# Method in brief: as §1
# [35] = biological target: Neu5Gc(a2-3)Gal(b1-3)GlcNAc
# Method in brief: as §1
# [36] = biological target: Neu5Gc(a2-3)Gal(b1-3)[Fuc(a1-4)]GlcNAc
# Method in brief: as §1
# [37] = biological target: Neu5Gc(a2-3)Gal(b1-4)Glc
# Method in brief: as §1
# [38] = biological target: Neu5Gc(a2-3)Gal(b1-4)GlcNAc
# Method in brief: as §1
# [39] = biological target: Neu5Gc(a2-3)Gal(b1-4)GlcNAc(b1-3)Gal(b1-4)GlcNAc(b1-2)Man(a1-3)[Neu5Gc(a2-3)Gal(b1-4)GlcNAc(b1-3)Gal(b1-4)GlcNAc(b1-2)Man(a1-6)]Man(b1-4)GlcNAc(b1-4)GlcNAc
# Method in brief: as §1
# [40] = biological target: Neu5Gc(a2-3)Gal(b1-4)[Fuc(a1-3)]GlcNAc
# Method in brief: as §1
# [41] = biological target: Neu5Gc(a2-6)Gal(b1-4)GlcNAc
# Method in brief: as §1
# [42] = biological target: Neu5Gc(a2-6)GalNAc
# Method in brief: as §1
# [43] = biological target: Neu5Gc(a2-8)Neu5Ac(a2-3)Gal(b1-4)GlcNAc
# Method in brief: as §1
# [44] = biological target: Neu5Gc(a2-8)Neu5Gc(a2-3)Gal(b1-4)GlcNAc
# Method in brief: as §1
# [45] = biological target: Neu5Gc(a2-8)Neu5Gc(a2-3)Gal(b1-4)GlcNAc(b1-3)Gal(b1-4)GlcNAc
# Method in brief: as §1
# [46] = biological target: Neu5Gc(a2-8)Neu5Gc(a2-6)Gal(b1-4)GlcNAc
# Method in brief: as §1
# [47] = biological target: Neu5Gc(b2-6)Gal(b1-4)GlcNAc
# Method in brief: as §1
binder,measurement,setting,value
B1,glycan array binding signal (z-score),[1],2.65
same,glycan array binding signal (z-score),[2],0.271
same,glycan array binding signal (z-score),[3],0.552
same,glycan array binding signal (z-score),[4],0.802
same,glycan array binding signal (z-score),[5],0.965
same,glycan array binding signal (z-score),[6],-0.606
same,glycan array binding signal (z-score),[7],0.711
same,glycan array binding signal (z-score),[8],0.322
same,glycan array binding signal (z-score),[9],-0.507
same,glycan array binding signal (z-score),[10],0.134
same,glycan array binding signal (z-score),[11],-0.865
same,glycan array binding signal (z-score),[12],0.272
same,glycan array binding signal (z-score),[13],-0.572
same,glycan array binding signal (z-score),[14],0.108
same,glycan array binding signal (z-score),[15],0.004
same,glycan array binding signal (z-score),[16],-1.06
same,glycan array binding signal (z-score),[17],0.31
same,glycan array binding signal (z-score),[18],-0.348
same,glycan array binding signal (z-score),[19],0.515
same,glycan array binding signal (z-score),[20],-0.577
same,glycan array binding signal (z-score),[21],-1.13
same,glycan array binding signal (z-score),[22],1.35
same,glycan array binding signal (z-score),[23],0.339
same,glycan array binding signal (z-score),[24],0.616
same,glycan array binding signal (z-score),[25],1.23
same,glycan array binding signal (z-score),[26],0.774
same,glycan array binding signal (z-score),[27],0.261
same,glycan array binding signal (z-score),[28],-0.264
same,glycan array binding signal (z-score),[29],-0.56
same,glycan array binding signal (z-score),[30],-1.02
same,glycan array binding signal (z-score),[31],0.566
same,glycan array binding signal (z-score),[32],-0.13
same,glycan array binding signal (z-score),[33],-0.38
same,glycan array binding signal (z-score),[34],-0.218
same,glycan array binding signal (z-score),[35],0.539
same,glycan array binding signal (z-score),[36],-0.383
same,glycan array binding signal (z-score),[37],-0.149
same,glycan array binding signal (z-score),[38],-0.702
same,glycan array binding signal (z-score),[39],0.937
same,glycan array binding signal (z-score),[40],0.51
same,glycan array binding signal (z-score),[41],-0.134
same,glycan array binding signal (z-score),[42],-0.257
same,glycan array binding signal (z-score),[43],-0.152
same,glycan array binding signal (z-score),[44],0.393
same,glycan array binding signal (z-score),[45],-1.33
same,glycan array binding signal (z-score),[46],1.14
same,glycan array binding signal (z-score),[47],0.424

# Quoted at random: three records from the list.
binder,measurement,setting,value
B1,glycan array binding signal (z-score),[9],-0.507
same,glycan array binding signal (z-score),[39],0.937
same,glycan array binding signal (z-score),[46],1.14
